Paper PMC11235583, “Structural basis of odor sensing by insect heteromeric odorant receptors” (Science (New York, N.Y.), 2024)
Results are given in words; binding and its absence hold for the method and conditions named. Some binding calls cover weakened binding; strength is not graded here.

What was measured:
[1] = target: Apocrypta bakeri odorant receptor co-receptor Orco (Apocrypta bakeri) (UniProt B0FAQ4); test: cryo-EM structure; AgOR28 co-expressed with A. bakeri Orco, purified complex; unbound and 2,4,5-trimethylthiazole (TMT)-bound states
[2] = target: Apocrypta bakeri odorant receptor co-receptor Orco (Apocrypta bakeri) (UniProt B0FAQ4); test: cryo-EM structure; AaOR10/Orco heteromers co-expressed in HEK293 cells (1:1 OR to Orco virus), purified by an affinity tag on the OR subunit, in detergent micelle; unbound and o-cresol-bound states

binding [1]: binds
binding [2]: binds
B1: Apocrypta bakeri odorant receptor co-receptor Orco (receptor, UniProt B0FAQ4 1-474)
chain: MKFKHQGLVADLLPNIRVMQGVGHFMFNYYSEGKKFPHRIYCIVTLLLLLLQYGMMAVNLMMESDDVDDLTANTITMLFFLHPIVKMIYFPVRSKIFYKTLAIWNNPNSHPLFAESNARFHALAITKMRRLLFCVAGATIFSVISWTGITFIEDSVKRITDPETNETTIIPIPRLMIRTFYPFNAMSGAGHVFALIYQFYYLVISMAVSNSLDVLFCSWLLFACEQLQHLKAIMKPLMELSATLDTVVPNSGELFKAGSADHLRESQGVQPSGNGDNVLDVDLRGIYSNRQDFTATFRPTAGTTFNGGVGPNGLTKKQEMLVRSAIKYWVERHKHVVRLVTAVGDAYGVALLLHMLTTTITLTLLAYQATKVNGVNVYAATVIGYLLYTLGQVFLFCIFGNRLIEESSSVMEAAYSCHWYDGSEEAKTFVQIVCQQCQKAMSISGAKFFTVSLDLFASVLGAVVTYFMVLVQLK
